Assay: Body weight and plasma lipids after 4-week VAP-1 inhibitor treatment
Format: in vivo, mouse (LDLR−/−ApoB100/100)
Settings: fasting plasma, LJP1586-treated mice (n = 15), mean ± SD
Procedure: The second phase examined the role of VAP-1 in atherosclerotic plaques. Twenty-five LDLR^−/−ApoB^100/100 mice were treated with a VAP-1 inhibitor (LJP1586, Z-3-fluoro-2-(4-methoxybenzyl)allylamine hydrochloride; a kind gift from M. Linnik, La Jolla Pharmaceuticals, San Diego, CA, USA), or with saline. At the age of 2 months, mice were shifted to a high-fat diet for 2 months prior to the start of 4-week treatment, during which they were on normal chow. All mice were housed in an animal facility under standard conditions (12 h light/dark cycle) and allowed access to food and water ad libitum.
During the 4 week treatment period, LDLR^−/−ApoB^100/100 mice received thrice-weekly intraperitoneal (i.p.) injections of a small molecular VAP-1 inhibitor, LJP1586 (Z-3-fluoro-2-(4-methoxybenzyl)allylamine hydrochloride; 0.5 mg/mL diluted in PBS; a kind gift from M. Linnik, La Jolla Pharmaceuticals, San Diego, CA, USA) at a dose of 5 mg/kg. Mice injected with the physiological saline alone (200 μL) served as negative controls. After treatment, all mice were sacrificed and the hearts were collected, formalin-fixed, and paraffin-embedded. Tissues were then cut transversely into 5 μm sections at the level of the coronary ostia. The areas of intima and media were outlined in sections stained with Movat’s pentachrome, and the intima-to-media ratio for each mouse was determined with ImageJ as described previously. Adjacent sections were stained with an anti-mouse Mac-3 antibody to detect activated macrophages in the intima as described above. Sections of aortic ostium were used to determine the area of plaque occupied by macrophages in each mouse because the ostium is easily located due to the presence of valves; it is therefore the most reliable place to compare plaque deposition in individual mice.
Total cholesterol (CHOD-PAP 1489232 kit; Roche Diagnostics GmbH, Mannheim, Germany), choline-containing phospholipids (990–54009; Wako Chemicals GmbH, Neuss, Germany and/or Diagnostic Systems, Holzheim, Germany), and triglycerides (GPO-PAP 1488872 kit; Roche Diagnostics GmbH) were measured using fully enzymatic methods.

Q: Which results are given for `COc1ccc(C/C(=C/F)CN)cc1.Cl` [LJP1586, Z-3-fluoro-2-(4-methoxybenzyl)allylamine hydrochloride]?
A: fP-Cholesterol: 8.8 ± 2.2 mmol/L; fP-HDL-cholesterol: 1.0 ± 0.25 mmol/L; fP-LDL-cholesterol: 7.1 ± 2.1 mmol/L; fP-Triglycerides: 1.5 ± 0.35 mmol/L

Source: publication PMC5059718, “Leukocyte trafficking-associated vascular adhesion protein 1 is expressed and functionally active in atherosclerotic plaques” (Scientific Reports, 2016)
